Structures are written as SMILES.

The test system of one assay is 4EBP1, p70S6K1/2 and AKT. As to the kind of experiment: Western blot of downstream mTOR effectors in PC3 cells. In kind it is cell-based, human. The following applies: rapamycin (50 nM), PP242 (2.5 μM), 3 hours. A general note: A western blot detects proteins with antibodies after separation by electrophoresis.
In assay [1] the test system is PC3 human prostate cancer cells. As to the kind of experiment: Ribosome profiling: translational efficiency (ribosome footprint vs RNA-seq read density).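 Also: Per-gene footprint-to-mRNA density ratio averaged per codon over the coding sequence, scaled so the median gene equals 1.0 after excluding regulated genes.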 Format: cell-based. The following applies: log2≤−1.5 (false discovery rate <0.05), PP242 as compared to rapamycin treatment, 3 hr.

As to `CC(C)n1nc(-c2cc3cc(O)ccc3[nH]2)c2c(N)ncnc21` [PP242], the “activity of the three primary downstream mTOR effectors 4EBP1, p70S6K1/2 and AKT” value in the assay on 4EBP1, p70S6K1/2 and AKT is “significantly inhibited”. The “number of target mRNAs selectively decreased at the translational level” value in assay [1] stood at 144.

The values are drawn from patent US20190093170A1, “USE OF TRANSLATIONAL PROFILING TO IDENTIFY TARGET MOLECULES FOR THERAPEUTIC TREATMENT” (THE REGENTS OF THE UNIVERSITY OF CALIFORNIA, priority 2013, published 2019).
